Laboratory results published in the supplement of paper PMC10849652.
This is one part of the list.

Chains of the proteins cited; added tags and fusions are not shown. Lines headed by an entry give the natural chain unless they say otherwise; changes in a name come on top.
UniProt Q8N6L1: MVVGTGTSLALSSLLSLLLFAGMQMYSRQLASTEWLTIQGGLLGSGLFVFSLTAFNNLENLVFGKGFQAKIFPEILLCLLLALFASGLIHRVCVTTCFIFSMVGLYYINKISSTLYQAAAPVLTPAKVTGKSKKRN
UniProt Q8NEZ4, whole entry, looked up: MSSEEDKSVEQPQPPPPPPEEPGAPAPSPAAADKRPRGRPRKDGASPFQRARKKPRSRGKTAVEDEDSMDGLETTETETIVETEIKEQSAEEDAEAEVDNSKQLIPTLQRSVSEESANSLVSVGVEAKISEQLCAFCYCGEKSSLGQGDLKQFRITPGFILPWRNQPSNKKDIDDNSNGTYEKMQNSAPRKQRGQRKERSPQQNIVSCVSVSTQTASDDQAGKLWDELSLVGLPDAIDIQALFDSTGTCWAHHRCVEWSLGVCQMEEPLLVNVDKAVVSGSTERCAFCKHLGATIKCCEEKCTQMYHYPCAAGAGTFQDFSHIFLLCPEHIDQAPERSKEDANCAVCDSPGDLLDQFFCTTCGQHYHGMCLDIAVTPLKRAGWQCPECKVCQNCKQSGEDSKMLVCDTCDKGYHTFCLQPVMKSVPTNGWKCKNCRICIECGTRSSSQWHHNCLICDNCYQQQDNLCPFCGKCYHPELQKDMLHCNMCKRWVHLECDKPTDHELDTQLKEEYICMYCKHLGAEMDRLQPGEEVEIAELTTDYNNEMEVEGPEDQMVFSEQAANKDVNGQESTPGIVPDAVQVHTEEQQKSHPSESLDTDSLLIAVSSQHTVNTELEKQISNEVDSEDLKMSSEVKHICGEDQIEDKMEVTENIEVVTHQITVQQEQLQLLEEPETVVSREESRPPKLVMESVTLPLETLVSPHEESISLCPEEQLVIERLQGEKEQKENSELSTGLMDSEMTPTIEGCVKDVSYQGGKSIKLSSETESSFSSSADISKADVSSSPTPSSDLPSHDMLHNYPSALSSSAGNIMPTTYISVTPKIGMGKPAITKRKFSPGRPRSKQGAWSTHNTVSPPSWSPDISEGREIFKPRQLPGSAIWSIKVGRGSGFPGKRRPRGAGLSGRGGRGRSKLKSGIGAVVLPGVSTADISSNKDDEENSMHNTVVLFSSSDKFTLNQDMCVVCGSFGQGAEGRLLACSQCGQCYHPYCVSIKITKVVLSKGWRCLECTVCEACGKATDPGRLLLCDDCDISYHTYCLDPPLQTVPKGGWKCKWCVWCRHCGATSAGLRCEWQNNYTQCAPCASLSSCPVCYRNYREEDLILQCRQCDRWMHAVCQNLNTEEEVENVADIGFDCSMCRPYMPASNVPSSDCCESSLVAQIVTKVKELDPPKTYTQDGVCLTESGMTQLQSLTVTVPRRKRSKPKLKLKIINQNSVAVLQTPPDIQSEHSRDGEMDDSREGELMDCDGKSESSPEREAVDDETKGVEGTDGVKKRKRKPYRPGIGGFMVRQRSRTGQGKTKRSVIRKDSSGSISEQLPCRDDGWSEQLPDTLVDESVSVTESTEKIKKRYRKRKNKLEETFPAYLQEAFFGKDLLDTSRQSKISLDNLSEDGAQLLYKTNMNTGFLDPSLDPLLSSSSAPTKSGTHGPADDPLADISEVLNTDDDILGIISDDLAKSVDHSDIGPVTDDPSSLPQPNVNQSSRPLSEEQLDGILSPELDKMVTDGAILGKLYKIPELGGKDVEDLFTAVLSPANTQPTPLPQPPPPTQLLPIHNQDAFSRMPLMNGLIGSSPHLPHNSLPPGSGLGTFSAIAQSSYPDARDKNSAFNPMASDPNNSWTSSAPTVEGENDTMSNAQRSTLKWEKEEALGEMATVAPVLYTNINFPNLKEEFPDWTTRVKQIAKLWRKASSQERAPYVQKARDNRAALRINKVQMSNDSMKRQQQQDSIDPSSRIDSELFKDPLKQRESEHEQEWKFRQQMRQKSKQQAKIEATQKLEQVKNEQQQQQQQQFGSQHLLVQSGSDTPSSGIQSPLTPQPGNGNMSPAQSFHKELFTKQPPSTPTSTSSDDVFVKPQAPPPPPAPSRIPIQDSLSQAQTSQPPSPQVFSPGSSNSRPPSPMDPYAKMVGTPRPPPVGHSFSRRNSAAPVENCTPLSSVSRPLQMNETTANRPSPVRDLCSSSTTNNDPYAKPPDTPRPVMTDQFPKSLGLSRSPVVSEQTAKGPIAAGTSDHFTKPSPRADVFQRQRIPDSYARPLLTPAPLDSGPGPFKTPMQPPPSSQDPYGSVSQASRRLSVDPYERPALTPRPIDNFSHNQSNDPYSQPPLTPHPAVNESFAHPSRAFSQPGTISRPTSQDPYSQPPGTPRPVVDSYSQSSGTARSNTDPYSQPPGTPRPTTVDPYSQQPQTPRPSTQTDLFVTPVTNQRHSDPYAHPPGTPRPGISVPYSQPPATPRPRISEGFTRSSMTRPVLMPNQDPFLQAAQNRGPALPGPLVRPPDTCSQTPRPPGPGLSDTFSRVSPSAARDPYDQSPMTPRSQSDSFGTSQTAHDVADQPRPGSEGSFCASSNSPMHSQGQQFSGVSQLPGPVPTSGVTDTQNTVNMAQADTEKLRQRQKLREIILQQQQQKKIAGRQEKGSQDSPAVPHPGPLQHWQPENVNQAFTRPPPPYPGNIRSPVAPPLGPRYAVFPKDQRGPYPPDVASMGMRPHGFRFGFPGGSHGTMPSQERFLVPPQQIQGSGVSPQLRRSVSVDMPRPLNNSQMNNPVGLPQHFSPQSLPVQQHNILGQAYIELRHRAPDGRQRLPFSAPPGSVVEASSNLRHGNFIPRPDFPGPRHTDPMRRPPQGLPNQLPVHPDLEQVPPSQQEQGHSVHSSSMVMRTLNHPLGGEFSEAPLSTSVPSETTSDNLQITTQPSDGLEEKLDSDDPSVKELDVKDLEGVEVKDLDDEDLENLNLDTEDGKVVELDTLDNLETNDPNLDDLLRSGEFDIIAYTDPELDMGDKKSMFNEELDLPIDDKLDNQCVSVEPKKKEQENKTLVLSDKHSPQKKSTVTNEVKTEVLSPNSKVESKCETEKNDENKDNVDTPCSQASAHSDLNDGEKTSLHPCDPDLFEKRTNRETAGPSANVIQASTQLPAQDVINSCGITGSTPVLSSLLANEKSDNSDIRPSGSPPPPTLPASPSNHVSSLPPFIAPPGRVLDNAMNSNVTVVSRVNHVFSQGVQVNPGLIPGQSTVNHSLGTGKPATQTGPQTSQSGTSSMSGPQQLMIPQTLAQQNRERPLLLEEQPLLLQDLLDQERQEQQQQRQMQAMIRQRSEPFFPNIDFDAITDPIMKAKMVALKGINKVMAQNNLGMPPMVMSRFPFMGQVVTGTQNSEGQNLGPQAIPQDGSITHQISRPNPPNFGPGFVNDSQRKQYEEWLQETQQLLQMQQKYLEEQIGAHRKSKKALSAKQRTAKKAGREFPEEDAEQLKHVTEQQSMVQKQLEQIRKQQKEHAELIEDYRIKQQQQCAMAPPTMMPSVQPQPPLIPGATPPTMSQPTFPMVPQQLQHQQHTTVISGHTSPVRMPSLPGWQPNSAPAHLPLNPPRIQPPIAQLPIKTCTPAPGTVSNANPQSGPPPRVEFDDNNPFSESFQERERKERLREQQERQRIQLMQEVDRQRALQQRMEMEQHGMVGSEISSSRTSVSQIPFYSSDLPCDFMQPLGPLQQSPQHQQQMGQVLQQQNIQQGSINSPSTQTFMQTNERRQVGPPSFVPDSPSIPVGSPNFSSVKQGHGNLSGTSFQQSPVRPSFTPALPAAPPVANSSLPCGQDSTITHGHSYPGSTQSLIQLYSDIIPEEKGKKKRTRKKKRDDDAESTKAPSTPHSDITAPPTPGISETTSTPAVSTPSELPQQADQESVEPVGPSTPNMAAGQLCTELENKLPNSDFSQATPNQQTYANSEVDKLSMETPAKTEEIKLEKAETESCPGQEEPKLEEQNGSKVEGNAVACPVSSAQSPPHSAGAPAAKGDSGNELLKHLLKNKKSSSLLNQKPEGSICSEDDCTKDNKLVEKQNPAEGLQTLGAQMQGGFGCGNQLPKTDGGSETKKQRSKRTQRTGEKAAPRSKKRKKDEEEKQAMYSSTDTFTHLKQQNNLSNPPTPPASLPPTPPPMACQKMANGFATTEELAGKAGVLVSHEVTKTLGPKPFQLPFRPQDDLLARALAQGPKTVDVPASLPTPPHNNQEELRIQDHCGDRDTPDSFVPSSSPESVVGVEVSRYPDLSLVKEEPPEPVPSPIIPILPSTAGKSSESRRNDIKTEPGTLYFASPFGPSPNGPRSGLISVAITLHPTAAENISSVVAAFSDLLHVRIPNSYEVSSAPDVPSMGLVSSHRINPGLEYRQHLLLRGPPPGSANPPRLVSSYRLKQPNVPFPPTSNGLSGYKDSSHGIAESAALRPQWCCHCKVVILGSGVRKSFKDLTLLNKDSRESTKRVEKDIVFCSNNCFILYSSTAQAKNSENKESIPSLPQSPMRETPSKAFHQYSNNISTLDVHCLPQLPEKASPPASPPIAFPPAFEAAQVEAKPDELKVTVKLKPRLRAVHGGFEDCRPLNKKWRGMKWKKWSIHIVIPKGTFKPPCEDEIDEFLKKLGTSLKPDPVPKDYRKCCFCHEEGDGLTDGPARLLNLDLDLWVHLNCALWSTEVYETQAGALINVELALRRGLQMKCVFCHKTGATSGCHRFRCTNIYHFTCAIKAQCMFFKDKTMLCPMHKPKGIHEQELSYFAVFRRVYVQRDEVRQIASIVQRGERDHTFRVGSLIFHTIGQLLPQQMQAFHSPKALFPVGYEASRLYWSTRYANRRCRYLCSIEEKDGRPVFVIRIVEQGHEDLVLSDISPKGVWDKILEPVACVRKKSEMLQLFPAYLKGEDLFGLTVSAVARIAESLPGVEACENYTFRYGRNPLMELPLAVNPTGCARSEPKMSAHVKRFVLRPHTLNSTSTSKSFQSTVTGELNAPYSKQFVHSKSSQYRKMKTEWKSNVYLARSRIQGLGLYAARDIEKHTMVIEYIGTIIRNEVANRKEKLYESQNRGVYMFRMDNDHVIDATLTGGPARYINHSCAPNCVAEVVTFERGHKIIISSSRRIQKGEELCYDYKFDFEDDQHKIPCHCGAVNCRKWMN
UniProt Q8IXV7: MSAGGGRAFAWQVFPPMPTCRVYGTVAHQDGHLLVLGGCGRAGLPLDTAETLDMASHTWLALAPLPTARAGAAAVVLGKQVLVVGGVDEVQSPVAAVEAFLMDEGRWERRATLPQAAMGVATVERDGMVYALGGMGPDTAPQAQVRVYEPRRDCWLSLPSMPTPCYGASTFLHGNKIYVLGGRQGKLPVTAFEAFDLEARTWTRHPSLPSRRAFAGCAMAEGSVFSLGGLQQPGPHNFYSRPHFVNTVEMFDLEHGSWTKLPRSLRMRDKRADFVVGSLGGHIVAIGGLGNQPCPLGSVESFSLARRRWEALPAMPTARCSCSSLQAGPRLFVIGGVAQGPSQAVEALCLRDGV
UniProt Q9BW62: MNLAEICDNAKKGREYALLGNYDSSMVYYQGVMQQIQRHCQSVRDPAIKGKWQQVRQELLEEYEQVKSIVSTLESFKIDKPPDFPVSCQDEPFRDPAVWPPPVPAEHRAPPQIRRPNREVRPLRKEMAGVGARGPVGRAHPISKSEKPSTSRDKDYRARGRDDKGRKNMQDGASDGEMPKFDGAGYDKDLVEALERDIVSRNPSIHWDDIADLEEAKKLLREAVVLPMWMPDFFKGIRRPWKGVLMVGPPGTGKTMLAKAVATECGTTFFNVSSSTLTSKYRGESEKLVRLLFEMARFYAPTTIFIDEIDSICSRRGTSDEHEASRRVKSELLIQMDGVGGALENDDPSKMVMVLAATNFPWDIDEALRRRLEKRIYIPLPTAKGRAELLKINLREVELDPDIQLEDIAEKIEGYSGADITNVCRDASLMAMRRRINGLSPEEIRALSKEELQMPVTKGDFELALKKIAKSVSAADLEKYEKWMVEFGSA
UniProt Q15053: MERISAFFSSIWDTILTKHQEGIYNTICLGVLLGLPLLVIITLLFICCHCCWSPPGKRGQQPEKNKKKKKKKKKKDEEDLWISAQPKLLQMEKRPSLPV
UniProt Q9P2K6: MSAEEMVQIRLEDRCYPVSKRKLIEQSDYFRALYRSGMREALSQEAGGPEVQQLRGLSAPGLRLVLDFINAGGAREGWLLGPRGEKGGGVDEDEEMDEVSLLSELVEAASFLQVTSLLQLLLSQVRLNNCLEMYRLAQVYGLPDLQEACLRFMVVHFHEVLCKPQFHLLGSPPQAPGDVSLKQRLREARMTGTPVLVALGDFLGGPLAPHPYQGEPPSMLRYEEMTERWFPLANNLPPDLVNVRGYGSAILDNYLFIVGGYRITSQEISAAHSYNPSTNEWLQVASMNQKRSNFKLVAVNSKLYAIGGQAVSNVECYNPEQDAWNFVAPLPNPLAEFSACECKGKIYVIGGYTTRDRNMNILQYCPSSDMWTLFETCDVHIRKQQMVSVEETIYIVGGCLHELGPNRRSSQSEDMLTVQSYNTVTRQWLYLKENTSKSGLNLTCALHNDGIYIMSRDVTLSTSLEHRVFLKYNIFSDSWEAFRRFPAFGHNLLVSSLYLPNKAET

What was measured:
Test in all cases: log2 fold change, soluble protein after heating vs DMSO (PISA); higher = thermal stabilisation; K562 cells, 10 uM, 30 min; active = over 0.2 and 3.5 SD of the protein, either way, in both replicates (recomputed)
[1] = compound: CC[C@@H]1C(=O)N(C)c2cnc(Nc3ccc(C(=O)NC4CCN(C)CC4)cc3OC)nc2N1C1CCCC1
Summary of the method: (§1)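 Thermal stability values are relative to control samples and come from duplicates. They are expressed as log2 fold changes. For measurement, K562 cells (2×10^6 cells/mL) received 10 μM compound for 30 min, and aliquots were heated for 3 min over 48°C-58°C, pooled, and extracted at 4°C in PBS with 0.5% NP-40. Soluble protein, the supernatant after 21,000xg for 90 min, was quantified by TMTpro 16plex LC-MS/MS with equalised channel sums.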

[2] = compound: CC[C@H](C)N1C=C(C2=C(C=C(C=C21)C3=CN=C(C=C3)N4CCNCC4)C(=O)NCC5=C(C=C(NC5=O)C)C)C
Summary of the method: as §1

epoxomicin = compound: CC[C@H](C)[C@@H](C(=O)N[C@@H]([C@@H](C)O)C(=O)N[C@@H](CC(C)C)C(=O)[C@]1(CO1)C)NC(=O)[C@H]([C@@H](C)CC)N(C)C(=O)C [epoxomicin]
Summary of the method: as §1

[3] = compound: CCn1c(C(=O)N(C2CC2)C2CC2)cc2c3c(ncn3C)c(Nc3cc(C)n(C)n3)nc21
Summary of the method: as §1

[4] = compound: CCn1cc(-c2ccnc3[nH]c(-c4cccc(CN(C)C)c4)cc23)c(-c2ccc(NC(=O)N(C)C)cc2)n1
Summary of the method: as §1

[5] = compound: CN(C)CC(=O)Nc1ccc2[nH]c(=O)c3ccccc3c2c1
Summary of the method: as §1

rosiglitazone = compound: CN(CCOC1=CC=C(C=C1)C[C@H]2C(=O)NC(=O)S2)C3=CC=CC=N3 (racemic) [rosiglitazone]
Summary of the method: as §1

[6] = compound: CN1C2=C(C3=C1C(=O)N(N=C3)CC4=CC(=CC=C4)N)SC(=C2)S(=O)C
Summary of the method: as §1

[7] = compound: CN1CCC(CNc2ccc3ncc(-c4cccc(OC(F)(F)F)c4)n3n2)CC1
Summary of the method: as §1

volasertib = compound: CC[C@@H]1C(=O)N(C)c2cnc(Nc3ccc(C(=O)N[C@H]4CC[C@H](N5CCN(CC6CC6)CC5)CC4)cc3OC)nc2N1C(C)C [volasertib]
Summary of the method: as §1

Target: KRTCAP2 isoform 2 (UniProt Q8N6L1)
- log2 fold change [1]: inactive: -0.005
- log2 fold change [2]: inactive: -0.041
- log2 fold change (epoxomicin): inactive: -0.047
- log2 fold change [3]: inactive: 0.031
- log2 fold change [4]: inactive: 0.056
- log2 fold change [5]: inactive: 0.063
- log2 fold change (rosiglitazone): inactive: 0.021
- log2 fold change [6]: inactive: -0.034
- log2 fold change [7]: inactive: -0.003

Target: KIAA0513 (UniProt O60268)
- log2 fold change (volasertib): inactive: -0.409
- log2 fold change [2]: inactive: -0.014
- log2 fold change [3]: inactive: -0.088
- log2 fold change [4]: inactive: 0.052
- log2 fold change [5]: inactive: -0.011
- log2 fold change (rosiglitazone): inactive: -0.17
- log2 fold change [7]: inactive: -0.336

Target: KRR1 (UniProt Q13601)
- log2 fold change [1]: inactive: 0.167
- log2 fold change [4]: inactive: -0.546
- log2 fold change [7]: inactive: 0.141

Target: KLC3 isoform 3 (UniProt Q6P597)
- log2 fold change (volasertib): inactive: -0.158

Target: KAT8 isoform 2 (UniProt Q9H7Z6)
- log2 fold change (volasertib): inactive: -0.208
- log2 fold change [2]: inactive: -0.013
- log2 fold change [3]: inactive: 0.046
- log2 fold change [4]: inactive: 0.024
- log2 fold change [5]: inactive: -0.062
- log2 fold change (rosiglitazone): inactive: 0.014
- log2 fold change [6]: inactive: 0.044
- log2 fold change [7]: inactive: 0.003

Target: KIAA1109 (UniProt Q2LD37)
- log2 fold change [1]: inactive: -0.194
- log2 fold change [3]: inactive: -0.085
- log2 fold change [4]: inactive: 0.173
- log2 fold change [7]: inactive: 0.003

Target: KMT2C isoform 3 (UniProt Q8NEZ4)
- log2 fold change [1]: active: -0.908
- log2 fold change [2]: inactive: -0.02
- log2 fold change (epoxomicin): inactive: -0.004
- log2 fold change [4]: inactive: 0.031
- log2 fold change [5]: inactive: 0
- log2 fold change [6]: inactive: 0.026
- log2 fold change [7]: active: -0.337

Target: KIF16B isoform 2 (UniProt Q96L93)
- log2 fold change [1]: inactive: -0.028
- log2 fold change [6]: inactive: 0.026

Target: JMJD7 (UniProt P0C870)
- log2 fold change [1]: inactive: -0.006
- log2 fold change [2]: inactive: 0.031
- log2 fold change (epoxomicin): inactive: 0.059
- log2 fold change [3]: inactive: -0.066
- log2 fold change (rosiglitazone): inactive: -0.248
- log2 fold change [6]: inactive: -0.05

Target: KIFC1 (UniProt Q9BW19)
- log2 fold change (epoxomicin): inactive: -0.032
- log2 fold change [4]: inactive: -0.033
- log2 fold change [7]: inactive: 0.055

Target: KLHDC10 (UniProt Q6PID8)
- log2 fold change (volasertib): inactive: -0.045
- log2 fold change [4]: inactive: 0.069
- log2 fold change [7]: inactive: 0.022

Target: KRT87P (UniProt A6NCN2)
- log2 fold change (rosiglitazone): inactive: 1.15

Target: KSR2 (UniProt Q6VAB6)
- log2 fold change (epoxomicin): inactive: 0.109
- log2 fold change [3]: inactive: 0.048
- log2 fold change [4]: inactive: 0.209
- log2 fold change [7]: inactive: -0.007

Target: KRT10, A0A1B0GVI3
- log2 fold change [2]: inactive: 0.058
- log2 fold change [4]: inactive: -0.332
- log2 fold change [7]: inactive: 0.045

Target: KLHL17 (UniProt Q6TDP4)
- log2 fold change (epoxomicin): inactive: 0.081

Target: KMT2E (UniProt Q8IZD2)
- log2 fold change (epoxomicin): inactive: 0.004
- log2 fold change [3]: inactive: 0.043
- log2 fold change [6]: inactive: 0.143

Target: KHSRP (UniProt M0R3J3)
- log2 fold change (epoxomicin): inactive: -0.056

Target: JOSD1 (UniProt Q15040)
- log2 fold change (epoxomicin): inactive: 0.164
- log2 fold change [3]: inactive: 0.107
- log2 fold change [6]: inactive: 0.06

Target: KCTD1 (UniProt Q719H9)
- log2 fold change [2]: inactive: 0.005
- log2 fold change (epoxomicin): inactive: 0.079
- log2 fold change [5]: inactive: -0.067
- log2 fold change [6]: inactive: 0.205

Target: ITSN1 (UniProt Q15811)
- log2 fold change (volasertib): inactive: 0.14
- log2 fold change (epoxomicin): inactive: 0.097
- log2 fold change [4]: inactive: -0.172
- log2 fold change [7]: inactive: -0.302

Target: KIF21B (UniProt O75037)
- log2 fold change [2]: inactive: -0.078
- log2 fold change (epoxomicin): inactive: -0.06
- log2 fold change [3]: inactive: -0.193
- log2 fold change [6]: inactive: -0.016

Target: KIF20B isoform 2 (UniProt Q96Q89)
- log2 fold change [4]: inactive: 0.07
- log2 fold change [7]: inactive: -0.136

Target: KLHDC8B (UniProt Q8IXV7)
- log2 fold change [3]: inactive: 0.093
- log2 fold change [4]: inactive: -0.21
- log2 fold change [5]: inactive: -0.023
- log2 fold change (rosiglitazone): inactive: 0.045
- log2 fold change [6]: inactive: -0.138
- log2 fold change [7]: inactive: -0.087

Target: KIDINS220 isoform 2 (UniProt Q9ULH0)
- log2 fold change [2]: inactive: -0.182
- log2 fold change (epoxomicin): inactive: -0.037
- log2 fold change [5]: inactive: -0.186
- log2 fold change (rosiglitazone): inactive: -0.063
- log2 fold change [6]: inactive: 0.11

Target: KISS1R (UniProt Q969F8)
- log2 fold change (volasertib): inactive: 0.171
- log2 fold change (epoxomicin): inactive: 0.007
- log2 fold change [3]: inactive: -0.088
- log2 fold change [4]: inactive: -0.11
- log2 fold change (rosiglitazone): inactive: 0.026
- log2 fold change [6]: inactive: 0.119
- log2 fold change [7]: inactive: 0.18

Target: KDM2B (UniProt Q8NHM5)
- log2 fold change (rosiglitazone): inactive: 0.125

Target: KMT2A isoform 3 (UniProt Q03164)
- log2 fold change [3]: inactive: -0.019
- log2 fold change [4]: inactive: 0.151
- log2 fold change [6]: inactive: -0.011
- log2 fold change [7]: inactive: -0.015

Target: KLHDC2 (UniProt Q9Y2U9)
- log2 fold change [2]: inactive: 0.128

Target: KATNAL1 (UniProt Q9BW62)
- log2 fold change (volasertib): inactive: -0.062
- log2 fold change (epoxomicin): inactive: -0.034
- log2 fold change [5]: inactive: 0.007
- log2 fold change (rosiglitazone): inactive: 0.088
- log2 fold change [6]: inactive: 0.07

Target: KIAA0040 (UniProt Q15053)
- log2 fold change [2]: inactive: -0.071
- log2 fold change [3]: inactive: 0.07
- log2 fold change [5]: inactive: -0.215

Target: KCNH2 (UniProt Q12809)
- log2 fold change (volasertib): inactive: -0.16
- log2 fold change (epoxomicin): inactive: -0.002
- log2 fold change [3]: inactive: -0.022
- log2 fold change [5]: inactive: 0.037
- log2 fold change (rosiglitazone): inactive: -0.082
- log2 fold change [6]: inactive: 0.159

Target: KMT5A (UniProt Q9NQR1)
- log2 fold change [4]: inactive: 0.091
- log2 fold change [7]: inactive: -0.2

Target: KLHL42 (UniProt Q9P2K6)
- log2 fold change (volasertib): inactive: -0.229
- log2 fold change (epoxomicin): inactive: 0.043
- log2 fold change (rosiglitazone): inactive: 0.164
- log2 fold change [6]: inactive: -0.081

Target: KDELR3 (UniProt O43731)
- log2 fold change [2]: inactive: -0.008
- log2 fold change [3]: inactive: -0.001
- log2 fold change (rosiglitazone): inactive: -0.085
- log2 fold change [6]: inactive: 0.011

Target: KIF20A (UniProt O95235)
- log2 fold change (epoxomicin): inactive: 0.013

Target: KIN (UniProt O60870)
- log2 fold change [4]: inactive: 0.184
- log2 fold change [7]: inactive: 0.249

Target: JMJD4 (UniProt Q9H9V9)
- log2 fold change (volasertib): inactive: -0.225
- log2 fold change [2]: inactive: -0.107
- log2 fold change (rosiglitazone): inactive: -0.027
- log2 fold change [6]: inactive: -0.106

Target: KDM6A (UniProt O15550)
- log2 fold change (volasertib): inactive: -0.08
- log2 fold change (epoxomicin): inactive: -0.052
- log2 fold change [5]: inactive: -0.129
- log2 fold change [6]: inactive: 0.059

Target: KBTBD7 (UniProt Q8WVZ9)
- log2 fold change [2]: inactive: 0.091
- log2 fold change [3]: inactive: 0.075
- log2 fold change [4]: inactive: -0.045
- log2 fold change [6]: inactive: 0.025
- log2 fold change [7]: inactive: -0.107

Target: KIF1C (UniProt O43896)
- log2 fold change (rosiglitazone): inactive: -0.026

Target: KIAA0754 (UniProt O94854)
- log2 fold change (volasertib): inactive: -0.047
- log2 fold change (epoxomicin): inactive: -0.079
- log2 fold change (rosiglitazone): inactive: -0.168
- log2 fold change [6]: inactive: 0.064

Target: KDF1 (UniProt Q8NAX2)
- log2 fold change [3]: inactive: -0.001
- log2 fold change [6]: inactive: 0.283
